No constants are given. Whether binding was seen depends on the method and setting. In cells and extracts the contact can be indirect. Some entries that bind do so weakly or less than the wild type.
Biological target: T1, asparagine endopeptidase (AEP), mouse brain (mouse (endogenous in mouse brain)) (UniProt O89017)
T1 sequence: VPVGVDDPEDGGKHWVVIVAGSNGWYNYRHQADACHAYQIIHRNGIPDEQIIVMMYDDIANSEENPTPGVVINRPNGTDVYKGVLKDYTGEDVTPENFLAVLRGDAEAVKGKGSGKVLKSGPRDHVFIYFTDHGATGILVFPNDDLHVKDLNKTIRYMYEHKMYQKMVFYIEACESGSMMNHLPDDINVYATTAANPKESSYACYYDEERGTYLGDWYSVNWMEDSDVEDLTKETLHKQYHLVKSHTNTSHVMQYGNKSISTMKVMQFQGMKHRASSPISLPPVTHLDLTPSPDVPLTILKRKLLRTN
Experiment: co-IP; WT and 5XFAD mouse brain lysates; anti-AEP antibody and protein A/G-agarose overnight at 4 °C; blot with anti-APP antibody

Chains of the proteins cited; added tags and fusions are not shown. Residues count along the entry.
UniProt P12023, residues 18-770: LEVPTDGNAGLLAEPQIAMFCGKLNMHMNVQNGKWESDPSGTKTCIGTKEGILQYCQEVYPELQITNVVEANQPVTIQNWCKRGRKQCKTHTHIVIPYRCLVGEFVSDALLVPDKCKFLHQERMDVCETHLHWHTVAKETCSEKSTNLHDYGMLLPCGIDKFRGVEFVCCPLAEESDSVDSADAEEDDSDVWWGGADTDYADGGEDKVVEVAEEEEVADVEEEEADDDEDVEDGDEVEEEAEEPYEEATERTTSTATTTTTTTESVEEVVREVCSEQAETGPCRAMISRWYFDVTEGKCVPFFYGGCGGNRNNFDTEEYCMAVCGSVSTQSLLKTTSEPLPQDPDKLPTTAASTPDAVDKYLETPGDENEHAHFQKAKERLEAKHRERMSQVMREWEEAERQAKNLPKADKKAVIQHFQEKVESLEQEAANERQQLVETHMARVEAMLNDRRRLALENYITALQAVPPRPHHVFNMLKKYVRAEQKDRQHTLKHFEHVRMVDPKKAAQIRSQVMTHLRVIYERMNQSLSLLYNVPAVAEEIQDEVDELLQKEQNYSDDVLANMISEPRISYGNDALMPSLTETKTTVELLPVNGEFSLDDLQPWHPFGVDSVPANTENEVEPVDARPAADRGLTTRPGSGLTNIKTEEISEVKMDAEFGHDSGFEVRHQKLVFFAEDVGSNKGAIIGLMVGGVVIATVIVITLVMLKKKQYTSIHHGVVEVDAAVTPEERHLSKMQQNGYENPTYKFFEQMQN

amyloid precursor protein (APP), mouse brain (from UniProt P12023 18-770)
binding: binds

Reference: publication PMC4659940
